Results are given in words; binding and its absence hold for the method and conditions named. Binding seen in cells or lysates may run through a third protein. Some entries that bind do so weakly or less than the wild type.
Legend:
[1] = molecular target: T1, Chk1 (human (endogenous in primary CD4+ T cells)) (UniProt O14757); assay: co-IP
T1 sequence: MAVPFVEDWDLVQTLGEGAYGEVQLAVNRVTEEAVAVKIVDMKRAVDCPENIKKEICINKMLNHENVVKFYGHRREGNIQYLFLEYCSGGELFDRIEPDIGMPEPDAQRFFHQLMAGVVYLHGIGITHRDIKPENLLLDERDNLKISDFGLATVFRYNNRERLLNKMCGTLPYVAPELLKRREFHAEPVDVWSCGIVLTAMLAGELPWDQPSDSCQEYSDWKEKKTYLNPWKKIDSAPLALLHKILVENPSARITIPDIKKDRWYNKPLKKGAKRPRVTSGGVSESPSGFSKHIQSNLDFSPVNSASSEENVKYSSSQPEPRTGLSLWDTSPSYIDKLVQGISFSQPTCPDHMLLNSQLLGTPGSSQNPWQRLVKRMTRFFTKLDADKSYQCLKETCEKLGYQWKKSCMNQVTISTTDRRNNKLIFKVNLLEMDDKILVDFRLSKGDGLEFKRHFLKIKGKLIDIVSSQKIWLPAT

Sequences of proteins named here, by UniProt entry; tags and fusion partners are left off.
UniProt P23771: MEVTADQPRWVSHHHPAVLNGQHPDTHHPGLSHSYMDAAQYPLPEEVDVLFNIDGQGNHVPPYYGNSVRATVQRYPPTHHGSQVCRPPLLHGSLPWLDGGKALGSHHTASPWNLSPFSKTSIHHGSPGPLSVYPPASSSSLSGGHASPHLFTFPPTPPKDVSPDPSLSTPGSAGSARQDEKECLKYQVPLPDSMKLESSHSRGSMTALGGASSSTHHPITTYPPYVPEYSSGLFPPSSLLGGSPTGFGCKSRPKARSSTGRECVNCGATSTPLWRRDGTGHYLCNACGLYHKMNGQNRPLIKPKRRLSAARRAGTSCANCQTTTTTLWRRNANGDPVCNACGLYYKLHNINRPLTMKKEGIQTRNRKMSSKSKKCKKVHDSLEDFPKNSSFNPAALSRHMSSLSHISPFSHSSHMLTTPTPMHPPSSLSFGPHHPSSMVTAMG
UniProt Q13535: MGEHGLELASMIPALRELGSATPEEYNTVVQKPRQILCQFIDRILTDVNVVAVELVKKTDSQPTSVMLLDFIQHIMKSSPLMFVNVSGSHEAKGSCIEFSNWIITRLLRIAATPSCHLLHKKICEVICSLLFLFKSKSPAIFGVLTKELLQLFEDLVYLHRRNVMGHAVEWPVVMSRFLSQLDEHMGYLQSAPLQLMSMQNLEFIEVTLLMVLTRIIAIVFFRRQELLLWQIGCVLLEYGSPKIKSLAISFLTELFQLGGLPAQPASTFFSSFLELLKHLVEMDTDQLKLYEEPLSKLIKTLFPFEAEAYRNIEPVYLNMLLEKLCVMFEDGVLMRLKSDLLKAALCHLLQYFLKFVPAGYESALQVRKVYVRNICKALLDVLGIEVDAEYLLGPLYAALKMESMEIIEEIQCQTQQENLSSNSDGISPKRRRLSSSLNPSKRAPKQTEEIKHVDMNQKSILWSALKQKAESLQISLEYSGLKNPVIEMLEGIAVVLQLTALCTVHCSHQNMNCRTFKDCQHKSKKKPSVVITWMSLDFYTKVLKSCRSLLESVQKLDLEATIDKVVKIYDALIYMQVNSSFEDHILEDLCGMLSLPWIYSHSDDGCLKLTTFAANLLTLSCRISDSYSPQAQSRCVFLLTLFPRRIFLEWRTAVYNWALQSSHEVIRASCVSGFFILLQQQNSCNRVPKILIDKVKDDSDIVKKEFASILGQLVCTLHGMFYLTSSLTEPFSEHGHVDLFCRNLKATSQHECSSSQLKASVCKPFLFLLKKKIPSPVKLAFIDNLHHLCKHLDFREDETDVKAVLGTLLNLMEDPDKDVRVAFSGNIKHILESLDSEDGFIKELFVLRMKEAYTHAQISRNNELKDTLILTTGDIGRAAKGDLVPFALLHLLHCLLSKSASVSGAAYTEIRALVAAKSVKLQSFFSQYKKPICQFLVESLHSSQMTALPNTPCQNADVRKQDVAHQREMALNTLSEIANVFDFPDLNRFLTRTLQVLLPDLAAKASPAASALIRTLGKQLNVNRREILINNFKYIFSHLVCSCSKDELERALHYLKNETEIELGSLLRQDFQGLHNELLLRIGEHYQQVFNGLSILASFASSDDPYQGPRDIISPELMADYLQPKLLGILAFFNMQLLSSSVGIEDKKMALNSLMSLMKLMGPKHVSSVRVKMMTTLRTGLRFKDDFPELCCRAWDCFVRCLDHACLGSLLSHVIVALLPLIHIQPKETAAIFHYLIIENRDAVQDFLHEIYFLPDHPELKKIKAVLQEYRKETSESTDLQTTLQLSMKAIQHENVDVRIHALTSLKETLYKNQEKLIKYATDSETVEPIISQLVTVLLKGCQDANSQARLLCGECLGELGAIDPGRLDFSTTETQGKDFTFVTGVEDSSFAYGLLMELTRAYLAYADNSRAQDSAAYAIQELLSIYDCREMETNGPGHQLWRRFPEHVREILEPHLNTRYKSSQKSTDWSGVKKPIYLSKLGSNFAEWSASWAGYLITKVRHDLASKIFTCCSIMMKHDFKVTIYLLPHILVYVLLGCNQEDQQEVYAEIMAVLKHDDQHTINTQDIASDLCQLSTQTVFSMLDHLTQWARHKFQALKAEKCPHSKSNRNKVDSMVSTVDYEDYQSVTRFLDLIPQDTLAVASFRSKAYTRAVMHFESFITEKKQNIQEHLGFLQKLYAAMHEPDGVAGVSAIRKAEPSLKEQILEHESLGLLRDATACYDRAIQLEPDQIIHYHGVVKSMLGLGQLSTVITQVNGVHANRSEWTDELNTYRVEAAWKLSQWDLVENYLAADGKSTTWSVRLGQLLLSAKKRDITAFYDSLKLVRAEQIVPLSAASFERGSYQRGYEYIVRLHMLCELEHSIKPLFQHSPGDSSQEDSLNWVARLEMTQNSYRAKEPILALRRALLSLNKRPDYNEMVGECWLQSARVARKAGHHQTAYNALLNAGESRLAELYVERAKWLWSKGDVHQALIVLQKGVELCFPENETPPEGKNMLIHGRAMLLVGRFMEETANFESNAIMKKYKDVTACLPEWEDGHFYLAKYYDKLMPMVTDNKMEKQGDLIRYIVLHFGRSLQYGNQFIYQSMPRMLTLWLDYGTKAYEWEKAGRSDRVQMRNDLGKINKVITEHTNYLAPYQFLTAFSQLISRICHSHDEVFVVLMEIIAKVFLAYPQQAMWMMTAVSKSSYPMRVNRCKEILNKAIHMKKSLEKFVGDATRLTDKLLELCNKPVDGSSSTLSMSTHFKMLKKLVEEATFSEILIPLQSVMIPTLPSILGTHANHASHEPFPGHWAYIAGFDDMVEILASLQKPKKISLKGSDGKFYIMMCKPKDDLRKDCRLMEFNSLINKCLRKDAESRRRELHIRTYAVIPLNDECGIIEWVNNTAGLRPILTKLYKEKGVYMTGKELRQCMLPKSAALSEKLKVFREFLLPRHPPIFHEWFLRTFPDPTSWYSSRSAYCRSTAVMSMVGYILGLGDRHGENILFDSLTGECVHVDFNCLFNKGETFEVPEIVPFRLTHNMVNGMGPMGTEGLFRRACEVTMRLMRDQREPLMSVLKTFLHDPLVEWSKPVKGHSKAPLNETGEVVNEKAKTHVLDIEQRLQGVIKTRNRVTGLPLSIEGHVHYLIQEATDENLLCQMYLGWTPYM

[2] = molecular target: T2, peroxisome-proliferator-activated receptor γ co-activator-1α (PGC1α) (human (endogenous in primary CD4+ T cells)) (UniProt Q9UBK2); assay: co-IP
T2 sequence: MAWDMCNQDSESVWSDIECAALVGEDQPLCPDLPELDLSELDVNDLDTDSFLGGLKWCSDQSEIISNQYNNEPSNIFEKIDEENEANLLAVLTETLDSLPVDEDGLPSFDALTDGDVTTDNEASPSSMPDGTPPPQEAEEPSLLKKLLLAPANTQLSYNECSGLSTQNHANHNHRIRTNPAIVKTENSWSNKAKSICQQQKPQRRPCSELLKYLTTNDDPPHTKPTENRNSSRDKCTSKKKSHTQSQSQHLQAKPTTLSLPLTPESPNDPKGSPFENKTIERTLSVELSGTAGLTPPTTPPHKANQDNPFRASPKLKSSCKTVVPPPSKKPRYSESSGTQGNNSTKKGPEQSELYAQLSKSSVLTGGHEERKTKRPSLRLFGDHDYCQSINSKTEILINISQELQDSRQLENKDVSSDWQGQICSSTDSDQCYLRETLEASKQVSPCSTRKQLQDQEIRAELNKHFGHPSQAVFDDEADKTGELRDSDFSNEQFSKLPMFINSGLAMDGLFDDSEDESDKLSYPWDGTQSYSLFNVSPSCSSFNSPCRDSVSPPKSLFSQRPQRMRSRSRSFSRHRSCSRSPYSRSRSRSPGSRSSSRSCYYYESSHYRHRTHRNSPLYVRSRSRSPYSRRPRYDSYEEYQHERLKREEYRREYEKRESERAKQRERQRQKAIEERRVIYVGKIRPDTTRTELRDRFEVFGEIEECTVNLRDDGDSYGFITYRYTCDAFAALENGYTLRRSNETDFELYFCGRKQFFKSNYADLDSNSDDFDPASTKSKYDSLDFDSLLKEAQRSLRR

Substance	binding [1]	binding [2]
GATA binding protein 3 (GATA3) (from UniProt P23771 1-443)	binds	
ataxia telangiectasia and Rad3-related (ATR) (from UniProt Q13535 1-2644)		binds
